Results are given in words; binding and its absence hold for the method and conditions named. For some assays here: A result given as binding can be weak or reduced; the word gives no strength. Sequences can lack the tags named with a protein.

Assay in all cases: two-hybrid; Matchmaker GAL4 two-hybrid system 3, AD (pGADT7) and BD (pGBKT7) plasmids co-introduced into S. cerevisiae AH109; growth on medium lacking Trp/Leu/His and blue colour indicate interaction
The target of test [1] is PtsN1(H66E), yeast two-hybrid fusion (Sinorhizobium fredii CCBAU45436).
Test [2] addresses PtsN1(H66A), yeast two-hybrid fusion (Sinorhizobium fredii CCBAU45436).
For test [3], the target named is PtsN2 of Sinorhizobium fredii CCBAU45436, yeast two-hybrid fusion (Sinorhizobium fredii CCBAU45436).
Test [4] has as its target PtsN1 (EIIA^Ntr) of Sinorhizobium fredii CCBAU45436, yeast two-hybrid fusion (Sinorhizobium fredii CCBAU45436).
The target of test [5] is PtsN3 of Sinorhizobium fredii CCBAU45436, yeast two-hybrid fusion (Sinorhizobium fredii CCBAU45436).

B1: KdpD sensory kinase of Sinorhizobium fredii CCBAU45436, yeast two-hybrid fusion (protein, UniProt C3KRJ3 1-901)
chain: MPGDRPDVDTRPSPDALLENAEREARGRLKIFLGAAPGVGKTYEMLVSGRARKSEGVDVVIGIVETHGRQETQALVDGLEAIARRNVEYRGHVLDEMDLDAILARRPQLVLVDELAHTNVEGSRHSKRYLDVEEILAKGIDVYSTLNVQHIESLNDIVAQITRIRVRETVPDSIIDRADDVEIIDLTPDDLIKRLHEGKVYLPTTAKRAIANYFSPGNLTALRELALRRTAERVDDQLVSHMQAHAIPGPWAAGDRVLVCIDHGSRGAALVRYAKRQADRLRAPWSAIHVETTGSINLPDADKDRLASHLRLAEQLGGEAITIPGQSVARDILRHAAAHNFTHVVTGKPNKPRWRELIEGSVSHDLIRHAGEISVHVVSGAARAASAARGVKTAPPPKQVKLQAYLLSTLYVSIALAFSALLDQVLDVRNLALVLLIGVLTSAVTAGLGPALYACFVSALAFNFFFLEPRYTFTIRDPESVLALVFFLVVAVTASNLTARVQRQAAAARQRARTTEDLYLFAKKLASTGTLDDVLWATAHQIASMLKVRVVILLPESGSIAVKAGYPPDDTLVDADIAAARWAWENDRPAGRGADTLPGAKRLYLPLRTGRAAIGVVGLDNDRQGPLLTPEQQRLFDALADQAALAIERVQLVADVDRARLAAEADRLRSALLTSISHDLKTPLAAIMGSAGTLRDYSGAMPEEDRTDLLSTVVDESERLNRFIANLLDMTRIESGATEPNASLHDVGDVVGTALRRAAKMLARHKTAIDAPGDLPMLKLDPVLFEQVLFNLLDNAAKYAPPGSTVRIRAWVDDNSVALQVMDEGPGIPSGDLERVFDSFYRVRKGDHVRAGTGLGLSICRGFIEAMGGTIAAGNRTDRSGAVFTITMPIPVGAPNVEDLT
Regarding B1, the binding result in test [1] is “no binding”; in test [2], “binds”; in test [3], “binds”; in test [4] it was “binds”; in test [5], “no binding”.

The record behind these values is publication PMC9239096.
